This note sets out measurements from PMC7812911.

Results are given in words; binding and its absence hold for the method and conditions named. Some results given as binding are weak or reduced against the parent protein; the word gives no strength.

The test deals with T1, beta-2-glycoprotein I (β2GPI) (human), P02749.
T1 chain: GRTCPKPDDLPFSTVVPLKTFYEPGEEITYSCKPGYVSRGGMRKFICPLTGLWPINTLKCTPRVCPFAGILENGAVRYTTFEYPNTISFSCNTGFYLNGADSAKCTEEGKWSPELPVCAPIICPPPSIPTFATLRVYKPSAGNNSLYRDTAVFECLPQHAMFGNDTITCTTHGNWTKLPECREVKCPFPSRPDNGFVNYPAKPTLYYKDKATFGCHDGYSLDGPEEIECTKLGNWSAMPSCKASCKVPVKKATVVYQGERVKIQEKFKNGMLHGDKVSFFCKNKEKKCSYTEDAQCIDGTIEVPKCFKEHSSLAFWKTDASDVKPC
The test is described as follows: SDS-PAGE; 12.5% SDS-PAGE of Heparin-Sepharose fractions of pooled human plasma stored at -80°C for three to five years; dimer-rich and monomer-rich aliquots identified on the gel; both purified. Particulars: remark: other sources report otherwise.

B1: beta-2-glycoprotein I (β2GPI), P02749 20-345 (protein)
chain: GRTCPKPDDLPFSTVVPLKTFYEPGEEITYSCKPGYVSRGGMRKFICPLTGLWPINTLKCTPRVCPFAGILENGAVRYTTFEYPNTISFSCNTGFYLNGADSAKCTEEGKWSPELPVCAPIICPPPSIPTFATLRVYKPSAGNNSLYRDTAVFECLPQHAMFGNDTITCTTHGNWTKLPECREVKCPFPSRPDNGFVNYPAKPTLYYKDKATFGCHDGYSLDGPEEIECTKLGNWSAMPSCKASCKVPVKKATVVYQGERVKIQEKFKNGMLHGDKVSFFCKNKEKKCSYTEDAQCIDGTIEVPKCFKEHSSLAFWKTDASDVKPC
B1: the binding result was “binds”.
